Data source: PubChem BioAssay AID1259308 (NCATS, 2017)
Assay: 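Genes whose loss raises luciferase production in HEK293 cells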 (primary screen). Cell system: human HEK293 embryonic kidney cells stably expressing firefly luciferase (HEK-CMV-Luc2-Hygro). Knock-down reagent: single siRNA against human genes, 0.8 pmol siRNA per well. Time to read-out: 72 h. Measurement: 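Luciferase light (ONE-Glo) measured on one replicate plate set and viability (CellTiter-Glo) on the other, scaled to a negative control siRNA, with robust z-scores and luciferase per cell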. Reading the numbers: total luciferase, z-score: higher = more reporter protein produced. Call rule: 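An siRNA counts as active if its total luciferase robust z-score exceeds 3; genes with two or more such siRNAs out of three were retested with fresh siRNAs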. Meaning of the calls: active = raised luciferase; inactive = no rise.
Here is one part, drawn at random, of about 59,000 reagents tested. In the full data, about 1,510 (2.6%) are marked active. 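Calls use total luciferase alone and ignore viability, so some active siRNAs may act by altering cell number.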 A number with no mark means an inactive call. Further read-outs or replicates are left out here.

total luciferase, z-score, by target gene and reagent
SCN2A: SID160716386 0.126; SID160716387 -0.572; SID160716388 2.39
BRCA2: SID160728848 0.18; SID160728858 0.541; SID160731802 -0.768
FXR2: SID160722384 7.27 (active); SID160722385 -1.37; SID160722386 -0.0125
MAPKAPK5: SID160720316 -1.87; SID160720317 0.382; SID160720318 3.37 (active)
AHSP: SID160740618 -0.46; SID160740619 0.198; SID160740620 -0.208
GTF2B: SID160774682 -0.43; SID160774683 -0.389; SID160774684 -2.49
CEP70: SID160750382 2.13; SID160750383 -0.191; SID160750384 0.737
CTAG2: SID160724400 1.18; SID160733056 1.16; SID160739561 -0.138
HLTF: SID160717030 -0.729; SID160717031 -0.545; SID160717032 -0.764
FAAH2: SID160759668 -0.367; SID160759669 0.954; SID160759670 0.753
HIKESHI: SID160740895 -0.236; SID160740896 -1.29; SID160740897 1.99
SLC35D2: SID160729820 0.483; SID160729821 0.0632; SID160730497 2.92
SF3A2P1: SID160725855 3.18 (active); SID160725856 1.72; SID160769704 1.15
C3orf38: SID160732995 -0.248; SID160763541 -0.967; SID160763543 3.38 (active)
MYO18A: SID160766841 -3.02; SID160766842 1.36; SID160766843 0.5
DAAM2: SID160736401 0.521; SID160736402 -2.07; SID160736403 -0.688
CDK17: SID160713954 0.659; SID160713956 1.81; SID160713957 0.552
USP48: SID160751874 -1.32; SID160751875 -0.435; SID160751876 0.557
IGFBP7-AS1: SID160762275 -0.191; SID160762276 2.77; SID160762277 1.65

6 of these entries, reformatted.
Target gene,PubChem SID,"total luciferase, z-score"
SCN2A,SID160716387,-0.572
SCN2A,SID160716388,2.39
BRCA2,SID160728848,0.18
BRCA2,SID160728858,0.541
BRCA2,SID160731802,-0.768
FXR2,SID160722384,7.27 (active)
